Source: the supplement of paper PMC12889115
The list shows a part of the results. Values are raw readings; no control value is given beside them.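 Primary screen: polymyxin B was added at a level permeabilizing Salmonella outer membranes while sparing inner membranes. DMSO wells, both with and without polymyxin B, established maximum growth. Plate-to-plate variation meant each plate was ranked on its own, and the lowest-OD600 compounds were selected as hits.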

System: Salmonella enterica serovar Typhimurium SL1344
Test: bacterial growth OD600 after 18 h with compound and polymyxin B; higher = more bacterial growth (less inhibition)
Conditions: 50 µM, Mueller-Hinton broth

Row | Structure (SMILES) | bacterial growth OD600 (polymyxin B 0.75 µg/mL) | bacterial growth OD600 (polymyxin B 1 µg/mL)
1 | CCOC(=O)C1(Cc2ccc(OC)cc2)CCN(C(=O)COc2ccccc2OC)CC1 | 0.537 | 
2 | COc1ccc(Cl)cc1NC(=O)CCC1CCCN(C(=O)CCN2CCCO2)C1 (centres undefined) |  | 0.844
3 | Fc1ccc(-c2cnnc(NCCc3ccc(Cl)cc3)n2)cc1 | 0.007 | 
4 | O=C(Cc1cccnc1)N1CCCC(Nc2ccc(F)cc2)C1 (centres undefined) |  | 0.834
5 | Cc1c[nH]c(CNC(=O)C2CCCN(C3CCN(CCc4ccccc4)CC3)C2)n1 (centres undefined) |  | 0.947
6 | COc1cccc(OCC2CCCN(Cc3nc(-c4cccs4)no3)C2)c1 (centres undefined) |  | 0.78
7 | CCOC(=O)C1(Cc2ccc(F)cc2)CCCN(C(=O)c2oc(C)cc2C)C1 (centres undefined) |  | 0.142
8 | CC(=O)Nc1cccc(C(=O)NCc2cccnc2Oc2ccccc2)c1 |  | 0.862
9 | CCn1nc(C)c(CNC2CCN(c3ccc(C(=O)NCCN4CCOCC4)cc3)CC2)c1C | 0.912 | 
